Test results taken from the supplement of paper PMC4604168 (melanoma cell lines).
The list shows a part of the results. Many values rest on one well or one pass, so single values are uncertain.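 The apoptosis fraction was the count of cleaved-PARP antibody-stained nuclei relative to all DNA-stained nuclei, imaged in 1,536-well plates. Screening doses were set so most cells survived, and baseline and induced cleaved-PARP levels vary greatly across cell lines.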

Tested on: SkMel30
Test: cleaved PARP positive nuclei fraction relative to DMSO control; melanoma cells; higher = more apoptosis
Conditions: library dose: low library concentration; 72 h

Compound | cleaved PARP positive nuclei fraction [%]
CN1CCN(c2ccc3nc(-c4c(N)c5c(F)cccc5[nH]c4=O)[nH]c3c2)CC1 [Dovitinib] + COc1cc2c(Oc3ccc4[nH]c(C)cc4c3F)ncnc2cc1OCCCN1CCCC1 [cediranib] (first compound 0.1 µM, partner dose 0.4 µM) | 181
CC(C)C[C@H](NC(=O)[C@H](Cc1ccccc1)NC(=O)c1cnccn1)B(O)O [Bortezomib] + CC(C)CCN1c2nc(Nc3cc(F)c(O)c(F)c3)ncc2N(C)C(=O)C1C [BID1870] (first compound 0.001 µM, partner dose 0.2 µM) | 108
O=C(O)c1ccc2c(c1)nc(Nc1cccc(Cl)c1)c1ccncc12 + NCC(=O)Nc1ccc(-n2nc(C(F)(F)F)cc2-c2ccc3c(ccc4ccccc43)c2)cc1 [OSU03012] (first compound 0.4 µM, partner dose 1 µM) | 212
Nc1ncn([C@H]2C[C@H](O)[C@@H](CO)O2)c(=O)n1 [decitabine] + Cn1cc(/C=C2\C(=O)Nc3cccnc32)c2ccccc21 [GW441756] (first compound 0.1 µM, partner dose 0.4 µM) | 289
CNC(=O)c1cc(Oc2ccc(NC(=O)Nc3ccc(Cl)c(C(F)(F)F)c3)cc2)ccn1 [sorafenib] + Oc1nc(-c2ccc(C(F)(F)F)cc2)nc2c1CSCC2 [XAV939] (first compound 0.4 µM, partner dose 2 µM) | 124
O=C(O)[C@@H]1[O][Sb](=[O])([O][Sb]2(=[O])[O][C@H]([C@H](O)CO)[C@H](O)[C@H](C(=O)O)[O]2)[O][C@H]([C@H](O)CO)[C@@H]1O (stereo not given in full) [stibogluconate] + C=CCn1c(=O)c2cnc(Nc3ccc(N4CCN(C)CC4)cc3)nc2n1-c1cccc(C(C)(C)O)n1 [MK1775] (first compound 2 µM, partner dose 0.02 µM) | 69.8
CC(C)C[C@H](NC(=O)[C@H](Cc1ccccc1)NC(=O)c1cnccn1)B(O)O [Bortezomib] + O=c1cc(-c2cccc3c2Sc2ccccc2S3)oc(N2CCOCC2)c1 [KU55933] (first compound 0.001 µM, partner dose 1 µM) | 136
Cn1c(=O)n(-c2ccc(C(C)(C)C#N)cc2)c2c3cc(-c4cnc5ccccc5c4)ccc3ncc21 + OCCn1cc(-c2cnc3nnn(Cc4ccc5ncccc5c4)c3n2)cn1 [PF04217903] (first compound 0.004 µM, partner dose 1 µM) | 150
Cn1c(=O)n(-c2ccc(C(C)(C)C#N)cc2)c2c3cc(-c4cnc5ccccc5c4)ccc3ncc21 + c1cc(-c2cnn3cc(-c4ccc(OCCN5CCCCC5)cc4)cnc23)ccn1 [Dorsomorphin] (first compound 0.004 µM, partner dose 0.4 µM) | 102
O=C(O)c1ccc2c(c1)nc(Nc1cccc(Cl)c1)c1ccncc12 + COc1ccc(-c2ccc3c(N4CCOCC4)nc(N4C[C@@H](C)O[C@@H](C)C4)nc3n2)cc1CO [KU0063794] (first compound 0.4 µM, partner dose 0.02 µM) | 43.5

Some of the entries so far, comma-delimited:
Compound,cleaved PARP positive nuclei fraction [%]
"Cn1c(=O)n(-c2ccc(C(C)(C)C#N)cc2)c2c3cc(-c4cnc5ccccc5c4)ccc3ncc21 + OCCn1cc(-c2cnc3nnn(Cc4ccc5ncccc5c4)c3n2)cn1 [PF04217903] (first compound 0.004 µM, partner dose 1 µM)",150
"Cn1c(=O)n(-c2ccc(C(C)(C)C#N)cc2)c2c3cc(-c4cnc5ccccc5c4)ccc3ncc21 + c1cc(-c2cnn3cc(-c4ccc(OCCN5CCCCC5)cc4)cnc23)ccn1 [Dorsomorphin] (first compound 0.004 µM, partner dose 0.4 µM)",102
